In publication doi:10.1101/2021.06.15.448540:
These are yes or no findings as the source states them, for the method shown. Some binding calls cover weakened binding; strength is not graded here.

Tests used:
Assay in all cases: MST
[1] = biological target: T1, FhuCB with FhuB Q507 and T510 mutated to Ala (Escherichia coli) (UniProt P07821+P06972)
T1 sequence (chain, His-tag labeled with the red-tris-NTA 2nd generation dye (in the MST)) 1: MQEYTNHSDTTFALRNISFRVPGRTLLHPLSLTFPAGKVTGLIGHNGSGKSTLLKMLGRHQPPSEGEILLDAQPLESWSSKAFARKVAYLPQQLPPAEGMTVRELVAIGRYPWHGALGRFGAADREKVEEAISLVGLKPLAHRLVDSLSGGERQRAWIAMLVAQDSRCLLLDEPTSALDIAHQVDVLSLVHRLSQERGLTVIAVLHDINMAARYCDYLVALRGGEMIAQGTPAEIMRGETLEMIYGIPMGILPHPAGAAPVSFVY
T1 sequence (chain, His-tag labeled with the red-tris-NTA 2nd generation dye (in the MST)) 2: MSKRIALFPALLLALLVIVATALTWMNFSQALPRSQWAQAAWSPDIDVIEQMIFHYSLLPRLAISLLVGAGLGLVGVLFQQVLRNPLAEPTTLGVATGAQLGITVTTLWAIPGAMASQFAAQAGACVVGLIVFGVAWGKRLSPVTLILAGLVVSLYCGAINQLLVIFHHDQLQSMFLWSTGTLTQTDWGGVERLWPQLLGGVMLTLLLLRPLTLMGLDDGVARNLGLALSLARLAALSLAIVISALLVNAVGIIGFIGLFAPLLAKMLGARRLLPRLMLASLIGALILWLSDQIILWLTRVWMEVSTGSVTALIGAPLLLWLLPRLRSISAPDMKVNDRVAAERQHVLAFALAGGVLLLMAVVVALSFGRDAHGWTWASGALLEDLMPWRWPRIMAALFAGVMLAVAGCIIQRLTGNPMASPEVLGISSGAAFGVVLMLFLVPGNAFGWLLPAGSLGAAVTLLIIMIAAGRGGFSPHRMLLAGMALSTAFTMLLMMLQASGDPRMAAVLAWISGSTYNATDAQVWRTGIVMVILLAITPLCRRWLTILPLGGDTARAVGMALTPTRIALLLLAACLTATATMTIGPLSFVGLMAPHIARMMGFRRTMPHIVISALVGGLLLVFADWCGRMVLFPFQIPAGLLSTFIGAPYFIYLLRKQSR

[2] = biological target: T2, FhuCB with FhuB Q636 mutated to Ala (Escherichia coli) (UniProt P07821+P06972)
T2 sequence (chain, His-tag labeled with the red-tris-NTA 2nd generation dye (in the MST)) 1: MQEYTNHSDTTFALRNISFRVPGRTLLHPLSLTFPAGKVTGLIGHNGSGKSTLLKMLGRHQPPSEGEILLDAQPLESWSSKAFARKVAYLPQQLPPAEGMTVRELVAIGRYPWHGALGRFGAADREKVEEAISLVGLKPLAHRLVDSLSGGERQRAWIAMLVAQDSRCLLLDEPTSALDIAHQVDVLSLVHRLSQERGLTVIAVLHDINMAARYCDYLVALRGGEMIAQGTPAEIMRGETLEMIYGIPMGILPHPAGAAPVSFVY
T2 sequence (chain, His-tag labeled with the red-tris-NTA 2nd generation dye (in the MST)) 2: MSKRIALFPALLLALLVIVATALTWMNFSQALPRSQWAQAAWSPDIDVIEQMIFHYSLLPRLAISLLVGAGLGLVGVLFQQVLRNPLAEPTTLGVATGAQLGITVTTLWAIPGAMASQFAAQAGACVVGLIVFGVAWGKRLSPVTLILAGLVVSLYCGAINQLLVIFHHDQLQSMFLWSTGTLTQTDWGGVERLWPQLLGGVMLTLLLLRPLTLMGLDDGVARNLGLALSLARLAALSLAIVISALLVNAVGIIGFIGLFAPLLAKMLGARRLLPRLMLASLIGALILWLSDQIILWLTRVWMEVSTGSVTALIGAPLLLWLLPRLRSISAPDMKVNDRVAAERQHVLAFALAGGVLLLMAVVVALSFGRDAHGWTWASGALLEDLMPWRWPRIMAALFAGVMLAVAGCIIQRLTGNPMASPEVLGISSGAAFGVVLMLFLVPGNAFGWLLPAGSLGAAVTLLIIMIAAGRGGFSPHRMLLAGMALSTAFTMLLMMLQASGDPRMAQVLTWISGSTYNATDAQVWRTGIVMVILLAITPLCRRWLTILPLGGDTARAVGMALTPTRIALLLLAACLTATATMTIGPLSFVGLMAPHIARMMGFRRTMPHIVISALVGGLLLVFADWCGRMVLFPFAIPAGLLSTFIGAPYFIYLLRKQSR

[3] = biological target: T3, FhuCB with FhuB T182 and T184 mutated to Ala (Escherichia coli) (UniProt P07821+P06972)
T3 sequence (chain, His-tag labeled with the red-tris-NTA 2nd generation dye (in the MST)) 1: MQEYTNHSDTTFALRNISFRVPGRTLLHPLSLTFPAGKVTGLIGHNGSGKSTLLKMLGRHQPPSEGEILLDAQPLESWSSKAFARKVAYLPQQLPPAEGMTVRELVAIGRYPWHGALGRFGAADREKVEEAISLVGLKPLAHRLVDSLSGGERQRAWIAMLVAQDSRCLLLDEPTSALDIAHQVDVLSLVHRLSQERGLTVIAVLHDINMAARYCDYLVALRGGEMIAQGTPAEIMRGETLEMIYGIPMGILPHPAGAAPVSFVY
T3 sequence (chain, His-tag labeled with the red-tris-NTA 2nd generation dye (in the MST)) 2: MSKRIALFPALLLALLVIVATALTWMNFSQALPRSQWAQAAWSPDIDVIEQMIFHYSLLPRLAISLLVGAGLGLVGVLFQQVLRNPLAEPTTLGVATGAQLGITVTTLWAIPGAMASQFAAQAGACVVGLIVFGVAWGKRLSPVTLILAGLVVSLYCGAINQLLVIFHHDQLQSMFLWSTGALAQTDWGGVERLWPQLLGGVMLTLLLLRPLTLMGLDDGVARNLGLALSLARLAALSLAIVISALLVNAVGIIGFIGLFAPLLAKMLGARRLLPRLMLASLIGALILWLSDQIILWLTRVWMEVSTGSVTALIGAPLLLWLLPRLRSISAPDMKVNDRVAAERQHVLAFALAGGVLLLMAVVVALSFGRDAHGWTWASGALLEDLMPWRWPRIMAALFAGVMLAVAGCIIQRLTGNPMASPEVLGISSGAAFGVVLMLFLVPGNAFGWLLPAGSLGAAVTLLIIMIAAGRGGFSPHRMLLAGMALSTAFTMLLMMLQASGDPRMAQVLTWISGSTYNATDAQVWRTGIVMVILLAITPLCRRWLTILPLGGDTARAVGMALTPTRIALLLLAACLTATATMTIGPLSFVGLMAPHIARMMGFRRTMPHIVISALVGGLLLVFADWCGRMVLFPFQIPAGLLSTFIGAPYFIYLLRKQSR

Measured: binding

B1: FhuD (separately expressed periplasmic substrate-binding protein) (protein, UniProt P07822 31-296)
chain: AAIDPNRIVALEWLPVELLLALGIVPYGVADTINYRLWVSEPPLPDSVIDVGLRTEPNLELLTEMKPSFMVWSAGYGPSPEMLARIAPGRGFNFSDGKQPLAMARKSLTEMADLLNLQSAAETHLAQYEDFIRSMKPRFVKRGARPLLLTTLIDPRHMLVFGPNSLFQEILDEYGIPNAWQGETNFWGSTAVSIDRLAAYKDVDVLCFDHDNSKDMDALMATPLWQAMPFVRAGRFQRVPAVWFYGATLSAMHFVRVLDNAIGGKA
binds: [1] | [2] | [3]
